Source: PubChem BioAssay AID1508588 (Peter MacCallum Cancer Centre, 2020)
The whole screen tested about 18,000 reagents; below is an unselected part. 790 of them (4.4%) were called active. 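Calls rest on a combination of fold-change classes in drug and vehicle arms, not all shown here.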 Entries without a mark were called inactive.

Purpose: 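Which gene losses make BRAF-mutant melanoma cells more responsive to vemurafenib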 (primary screen)
Cell system: human WM266.4 melanoma cells (BRAF V600 mutant)
Reagents: siRNA pool against human genes, 40 nM
Duration: 96 h from transfection to read-out
Treatment: vemurafenib 300 nM (about IC25), added 48 h after transfection, for 48 h; comparison arm got DMSO vehicle only
Read-out: 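Ratios to non-targeting siRNA for cell gain, counted as DAPI nuclei after minus before drug and averaged over two replicates, and for absorbance-read medium lactate per cell; both binned into fold-change classes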
Reading the numbers: cell gain with vemurafenib: higher = more cell gain than with non-targeting siRNA; lactate per cell with vemurafenib: higher = more lactate made per cell
Hit rule: 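Enhancement is called by pairing each knock-down's vehicle-arm and drug-arm fold-change classes for viability or glycolysis; which class combinations qualify is not given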
Calls: active = enhances vemurafenib effect; inactive = no enhancement seen

gene | cell gain with vemurafenib | lactate per cell with vemurafenib
GPR162 (GeneID 27239) | 0.18 | 2.3
TOR2A (GeneID 27433) | 0.2 | 1.95
TFEC (GeneID 22797) | 1.17 | 0.56
KIAA0513 (GeneID 9764) | 0.88 | 0.9
PCDHGA8 (GeneID 9708) | 0.53 | 1.75
GPSM3 (GeneID 63940) | 1.18 | 0.94
SRRD (GeneID 402055) | 0.69 | 1.12
AUP1 (GeneID 550) | 0.49 | 1.21
AGPAT4 (GeneID 56895) | 0.44 | 1.06
NDUFV2 (GeneID 4729) | 0.41 | 2.66
SPX (GeneID 80763) | 0.93 | 0.82
PNO1 (GeneID 56902) | 0.3 (active) | 0.34
EFNA5 (GeneID 1946) | 0.79 | 0.56
ZNF7 (GeneID 7553) | 1.04 | 0.88
LONRF2 (GeneID 164832) | 0.61 | 0.53
MIX23 (GeneID 131076) | 0.44 | 1.4
FZD8 (GeneID 8325) | 0.4 | 1.36
PRDM10 (GeneID 56980) | 0.74 | 1.34
ROCK2 (GeneID 9475) | 0.67 | 1.25
WDR62 (GeneID 284403) | 0.64 | 0.74
NEK10 (GeneID 152110) | 0.68 | 0.79
CFI (GeneID 3426) | 0.26 | 2.16
GPR173 (GeneID 54328) | 0.81 | 0.21
SPG11 (GeneID 80208) | 0.41 | 1.14
IRX1 (GeneID 79192) | 0.59 | 1.11
FLI1 (GeneID 2313) | 0.57 | 1.2
DEF6 (GeneID 50619) | 0.68 | 1.7
GJB5 (GeneID 2709) | 0.95 | 0.77
CTSL3P (GeneID 392360) | 0.54 | 0.86
GALNT17 (GeneID 64409) | 0.77 | 0.66
ASIC2 (GeneID 40) | 0.77 | 0.86
PCDHGC5 (GeneID 56097) | 0.16 (active) | 1.48
CD300E (GeneID 342510) | 0.74 | 0.81
ARFRP1 (GeneID 10139) | 0.08 | 1.51
EMC9 (GeneID 51016) | 0.16 (active) | 1.18
SCD (GeneID 6319) | 0.34 | 0.75
ECI1 (GeneID 1632) | 0.9 | 0.84
CDKN2B (GeneID 1030) | 1.36 | 0.64
C12orf43 (GeneID 64897) | 0.52 | 0.82
C6orf163 (GeneID 206412) | 0.42 (active) | -0.03
SIX5 (GeneID 147912) | 0.35 | 0.39
ZNF345 (GeneID 25850) | 0.55 (active) | 0.52
LBX1 (GeneID 10660) | 0.62 | 1.56
NBPF1 (GeneID 55672) | 0.43 | 0.5

The list goes on, starting with the last 4 of the part before.
gene | cell gain with vemurafenib | lactate per cell with vemurafenib
SIX5 (GeneID 147912) | 0.35 | 0.39
ZNF345 (GeneID 25850) | 0.55 (active) | 0.52
LBX1 (GeneID 10660) | 0.62 | 1.56
NBPF1 (GeneID 55672) | 0.43 | 0.5
TWF2 (GeneID 11344) | 0.79 | 0.74
ATF4 (GeneID 468) | 0.32 | 1.05
ACOT1 (GeneID 641371) | 1.19 | 0.8
KNL1 (GeneID 57082) | 0.43 | 1.66
NOAZFP (GeneID 27309) | 0.99 | 0.88
POGK (GeneID 57645) | 0.72 | 0.84
EPHA6 (GeneID 285220) | -0.05 | 1
PRPF3 (GeneID 9129) | 0.12 | 1.62
H2AC6 (GeneID 8334) | 0.7 | 1.02
AMFR (GeneID 267) | 0.95 | 1.43
XAGE2 (GeneID 9502) | 0.49 | 0.82
XPNPEP1 (GeneID 7511) | 0.56 | 1.03
HAUS7 (GeneID 55559) | 0.21 | 2.42
DCTN4 (GeneID 51164) | 0.79 | 1
ASGR2 (GeneID 433) | 0.69 (active) | 0.4
RRBP1 (GeneID 6238) | 1.04 | 1.07
NDST1 (GeneID 3340) | 0.61 | 0.28
PCDH7 (GeneID 5099) | 0.24 | 1.53
RFC2 (GeneID 5982) | 0.34 | 1.14
OSBPL7 (GeneID 114881) | 0.68 | 0.46
LPP (GeneID 4026) | 0.54 | 0.49
COMMD10 (GeneID 51397) | 0.92 | 0.29
POLD4 (GeneID 57804) | 0.24 | 1.09
BCAP31 (GeneID 10134) | 0.12 | 2.5
ARCN1 (GeneID 372) | -0.14 | 0.99
ADGRB3 (GeneID 577) | 0.52 | 0.97
NEUROD4 (GeneID 58158) | 0.44 (active) | 0.32
RBM24 (GeneID 221662) | 0.34 | 1.03
CNDP1 (GeneID 84735) | 0.4 | 2.15
RPE65 (GeneID 6121) | 0.51 | 0.62
NVL (GeneID 4931) | 0.13 | 2.34
MPPED2 (GeneID 744) | 0.28 | 1.3
CIDEA (GeneID 1149) | 0.66 | 1.2
CFHR4 (GeneID 10877) | 1.01 | 0.29
TMEM126A (GeneID 84233) | 0.73 | 0.76
PPIP5K2 (GeneID 23262) | 0.71 | 0.29
GCC1 (GeneID 79571) | 0.31 | 1.12
ASPM (GeneID 259266) | 0.76 | 0.84
VAV2 (GeneID 7410) | 1.06 | 0.77
BARHL1 (GeneID 56751) | 0.97 | 1.03
FUT1 (GeneID 2523) | 0.81 | 1
FN3KRP (GeneID 79672) | 0.32 | 1.21
LRG1 (GeneID 116844) | 0.66 (active) | 0.32
IFT38 (GeneID 23059) | 0.84 | 0.7
FBXW8 (GeneID 26259) | 0.71 | 0.92
OR5AN1 (GeneID 390195) | 0.24 | 0.53
FLII (GeneID 2314) | 0.61 | 1.2
NAGS (GeneID 162417) | 0.66 | 1.44
CSF1 (GeneID 1435) | 0.74 | 1.07
RHOXF1 (GeneID 158800) | 0.31 | 0.8
PLPP1 (GeneID 8611) | 0.53 | 0.52
ZBTB33 (GeneID 10009) | 0.15 | 0.97
MTHFS (GeneID 10588) | 0.34 (active) | 0.7
RPA1 (GeneID 6117) | -0.1 | 2.04
CD69 (GeneID 969) | 0.37 | 1.81
SHANK1 (GeneID 50944) | 0.48 | 1.56
PPBP (GeneID 5473) | 0.69 | 0.78
GJB1 (GeneID 2705) | 0.33 | 1.15
TLE2 (GeneID 7089) | 1.01 | 0.84
IQCC (GeneID 55721) | 0.3 | 1.06
NCDN (GeneID 23154) | 0.5 | 0.96
CYP21A2 (GeneID 1589) | 0.68 | 0.67
NFYA (GeneID 4800) | 0.4 | 1.43
